# The supplement of paper PMC12889115
# The list shows a part of the results. Values are raw readings; no control value is given beside them.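 In the initial screen, polymyxin B was used at a concentration that permeabilizes Salmonella's outer membrane but not its inner membrane. Maximum growth was set by DMSO wells with or without polymyxin B. Since plates varied, data were ranked per plate, and compounds giving the lowest OD600 advanced as hits.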
# System: Salmonella enterica serovar Typhimurium SL1344
# Test: bacterial growth OD600 after 18 h with compound and polymyxin B; higher = more bacterial growth (less inhibition)
# Details: 50 µM, Mueller-Hinton broth
Structure (SMILES),bacterial growth OD600 (polymyxin B 1 µg/mL),bacterial growth OD600 (polymyxin B 0.75 µg/mL)
CN(Cc1ccc(F)cc1)Cc1nc(Cc2ccccc2Cl)no1,0.783,
CCN(CC)c1ncccc1CNC(=O)Cn1nc2ccccc2n1,1,
c1ccc(Oc2ncccc2CNCc2cccn2-c2ncccn2)cc1,,0.864
O=C(Nc1cnn(-c2ccc(C(=O)N3CCOc4ccccc4C3)cc2)c1)C1CCOCC1,,0.82
COc1cccc(N2C[C@@H]3C[C@@H](c4cccc(OC)c4OC)N4CCC[C@@]34C2=O)c1,,0.913
COc1cc(CN2CCOc3ccc(CN4CCc5sccc5C4)cc3C2)cc2c1OCO2,,0.002
COc1cccc(CC2(CO)CCN(Cc3cc(F)ccc3-n3nc(C)cc3C)CC2)c1,0.873,
CCO[C@H]1[C@H](NC(=O)c2ccco2)c2ccccc2C12CCN(C(=O)Cc1nonc1C)CC2,,0.891
CCc1ocnc1C(=O)NCc1cccnc1N1CCN(C)CC1,,0.855
CN(Cc1ccccc1)c1ncccc1CNC(=O)C1CC(=O)N(C2CC2)C1 (stereo unspecified),0.843,
O=C(c1ccc(Cl)cc1)N1CCC2(CCCN(Cc3cccnc3)C2=O)C1 (stereo unspecified),0.908,
O=C1CCC(CCNCc2cc3c(cc2Cl)OCO3)N1CC1C2CC3CC(C2)CC1C3 (stereo unspecified),,0.002
CCOC(=O)C1(CCCc2ccccc2)CCCN(C(=O)CCN2CCCO2)C1 (stereo unspecified),1.08,
Cc1ccc(CCC(=O)N2CCC(n3nccc3NC(=O)C3CC3)CC2)cc1,1.08,
Cc1ccccc1CCC1CCCN(C(=O)CCc2cnccn2)C1 (stereo unspecified),1.03,
COCCC(=O)N1CCC(Oc2ccc(C(=O)NC3CCCC3)cc2Cl)CC1,1.19,

Structure (SMILES),bacterial growth OD600 (polymyxin B 1 µg/mL),bacterial growth OD600 (polymyxin B 0.75 µg/mL)
CCOC(=O)C1(CC2CC2)CCN(C(=O)c2ccc3nc(C)[nH]c3c2)CC1,0.815,
Cc1ccc(S(=O)(=O)NCc2cccnc2Oc2ccccc2)s1,0.85,
COC(=O)C1CCCCN1C(=O)c1c(OC)cc(=O)n2c1CCN(Cc1ccccc1Cl)CC2 (stereo unspecified),,0.828
Cc1nc(N2CCCC(C(=O)NCCC(C)C)C2)nc2cc(S(C)(=O)=O)ccc12 (stereo unspecified),,0.79
CCCCS(=O)(=O)N1CCC(C2CCN(Cc3cccnc3)CC2)C1 (stereo unspecified),,0.877
O=C(NC1CC1)C1CCCN(C2CCN(C3CCCCCC3)CC2)C1 (stereo unspecified),,0.835
COc1ccc(CCN2CC(NC(=O)c3ccccc3C)CC2=O)cc1 (stereo unspecified),0.893,
COc1ccc(OCc2cc(C(=O)NC3CCOC(C)(C)C3)n[nH]2)c(Cl)c1 (stereo unspecified),,0.835
COc1cc(NC(=O)CCC2CCCN(Cc3cnc(SC)nc3)C2)cc(OC)c1 (stereo unspecified),0.962,
CCn1cc(CN2CCC(C(=O)Nc3cccc(-c4nnc(C)s4)c3)CC2)c(C)n1,1.04,
COc1cccc(-c2cnnc(NCc3cc(C(C)(C)C)[nH]n3)n2)c1,,0.588
CCC(=O)C1CCCN(C(=O)C2CCCN(c3nc(C)c4ccc(OC)cc4n3)C2)C1 (stereo unspecified),,0.017
O=C(CCC1CCCC1)N1CCC(C2(c3ccccn3)NC(=O)N(CCc3cccs3)C2=O)CC1 (stereo unspecified),,0.032
CCN(CCOC)c1ccc(-c2nc(Cc3ccccc3)no2)cn1,,0.589
COc1ccc(C(=O)N2CCN(C(=O)CCC3(Cc4ccc(Cl)cc4)CCC(=O)N3)CC2)cc1 (stereo unspecified),,0.851

# Structures listed so far that contain a halogen, in the order listed:
Structure (SMILES),bacterial growth OD600 (polymyxin B 1 µg/mL),bacterial growth OD600 (polymyxin B 0.75 µg/mL)
CN(Cc1ccc(F)cc1)Cc1nc(Cc2ccccc2Cl)no1,0.783,
COc1cccc(CC2(CO)CCN(Cc3cc(F)ccc3-n3nc(C)cc3C)CC2)c1,0.873,
O=C(c1ccc(Cl)cc1)N1CCC2(CCCN(Cc3cccnc3)C2=O)C1 (stereo unspecified),0.908,
O=C1CCC(CCNCc2cc3c(cc2Cl)OCO3)N1CC1C2CC3CC(C2)CC1C3 (stereo unspecified),,0.002
COCCC(=O)N1CCC(Oc2ccc(C(=O)NC3CCCC3)cc2Cl)CC1,1.19,
COC(=O)C1CCCCN1C(=O)c1c(OC)cc(=O)n2c1CCN(Cc1ccccc1Cl)CC2 (stereo unspecified),,0.828
COc1ccc(OCc2cc(C(=O)NC3CCOC(C)(C)C3)n[nH]2)c(Cl)c1 (stereo unspecified),,0.835
COc1ccc(C(=O)N2CCN(C(=O)CCC3(Cc4ccc(Cl)cc4)CCC(=O)N3)CC2)cc1 (stereo unspecified),,0.851
